These are yes or no findings as the source states them, for the method shown. In cells and extracts the contact can be indirect. Some binding calls cover weakened binding; strength is not graded here.
What was measured:
[1] = target: HRas in H-Ras^V12 oncogene-transformed cells (PH3MT) (UniProt P01112); assay: co-immunoprecipitation with anti-HRas from PH3MT whole cell lysate, Western blot; interaction said to be enhanced upon EGF stimulation
[2] = target: HRas in H-Ras^V12 oncogene-transformed cells (PH3MT) (UniProt P01112); assay: co-immunoprecipitation, PH3MT cells

B1: Sprouty2 (endogenous, in PH3MT human fibroblast lysates) (protein)
chain: MEARAQSGNGSQPLLQTPRDGGRQRGEPDPRDALTQQVHVLSLDQIRAIRNTNEYTEGPTVVPRPGLKPAPRPSTQHKHERLHGLPEHRQPPRLQHSQVHSSARAPLSRSISTVSSGSRSSTRTSTSSSSSEQRLLGSSFSSGPVADGIIRVQPKSELKPGELKPLSKEDLGLHAYRCEDCGKCKCKECTYPRPLPSDWICDKQCLCSAQNVIDYGTCVCCVKGLFYHCSNDDEDNCADNPCSCSQSHCCTRWSAMGVMSLFLPCLWCYLPAKGCLKLCQGCYDRVNRPGCRCKNSNTVCCKVPTVPPRNFEKPT
With B1 the binding [1] was “binds” and the binding [2] was “binds”.

Source: US20070066522A1
